This passage reports cell number change and AC50 results from PubChem BioAssay AID2685 (National Center for Advancing Translational Sciences (NCATS), 2010).

The nature of the experiment: qHTS Assay for Lipid Storage Modulators in Drosophila S3 Cells.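 For cell number change: cells counted by Cell Tracker Red CMTPX staining in the red channel.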 The following applies: BODIPY lipid droplet fluorescence, 18-24 h; for cell number change: measured here: cell count max response, cells fed with added oleic acid. In short, it runs like this: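 Drosophila S3 cells loaded with oleic acid (400 uM, as added) and compounds at several concentrations; lipid droplets imaged by 488-nm laser-scanning cytometry, 500–530 nm intensity and object ratio to cell channel. Percent activity normalized to 20 uM Triacsin C.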

The mark [1] stands for this setting: measured here: cell number channel AC50, cells fed with added oleic acid.
[2] abbreviates: measured here: lipid fluorescence (Fed channel) AC50, cells fed with added oleic acid.

The other results are listed elsewhere or left out. These are further read-outs of the screen, such as a control signal, another cell line or another target. No call is given for them. The list favours compounds with an active or inconclusive main result. Words in brackets tell the shape of the fitted curve; partial curves, single points and poor fits give uncertain potencies.

Turning to `c1ccc(-c2nnc(N3CCCC3)nc2-c2ccccc2)cc1`, the cell number change turned out to be 31.9%. Moreover, the half-maximal activity concentration (AC50) under setting [1] is 16.4 µM [rising, partial curve].

For `Cc1ccccc1Nc1c(-c2ccc(N3CCOCC3)cc2)nc2cnccn12`, the cell number change was 41.4%.

Regarding `O=C(O)CCCn1cc(NC(=O)c2c(F)cccc2F)cn1`, the cell number change was -36.4%. In addition, the half-maximal activity concentration (AC50) under setting [1] is 16.4 µM [falling, single point]. In addition, the concentration at half-maximal activity (AC50) under setting [2] was 29.1 µM [falling, single point].

In the case of `CC(C)OC(=O)CSc1nc(-c2ccc(F)cc2)nc2ccc(F)cc12`, the cell number change turned out to be 21%. Further, under setting [2], the AC50 was 18.4 µM [rising, single point].

Consider `CCCN(C(=O)C1CCCN(c2ncnc3c2nc2n3CCCCC2)C1)c1ccc(F)cc1` (stereo unspecified), for which the cell number change was -20.3%. The AC50 under setting [2] was 1.03 µM [rising, full curve].

Regarding `CCn1c(SCC(=O)c2ccc(Cl)s2)nnc1-c1cccs1`, the cell number change was -5.22%.

On to `CC1CN(C(=O)c2cccn(Cc3c(Cl)cccc3Cl)c2=O)CC(C)O1` (stereo unspecified), for which the cell number change is -44.3%. Moreover, the AC50 under setting [1] is 29.1 µM [falling, partial curve, poor fit].

As to `Cc1[nH]ncc1-c1nc2ccccc2[nH]1`, the cell number change is -19.7%. Further, under setting [2], the concentration at half-maximal activity (AC50) is 0.398 µM [rising, full curve, poor fit].

As for `Cn1c(COc2ccc(F)cc2)nnc1SCC(=O)NC1CC1`, the cell number change stood at 29.3%. Further, under setting [1], the half-maximal activity concentration (AC50) was 0.461 µM [rising, full curve, poor fit].

With `Cc1ccc(NC(=O)CCN2C(=O)c3ccccc3S2(=O)=O)cc1C`, the AC50 under setting [1] was 6.51 µM [rising, single point].

With `COCc1c(C(=O)N2CCc3ccccc32)oc2ccccc12`, the cell number change was found to be 32.1%. The half-maximal activity concentration (AC50) under setting [2] is 3.66 µM [rising, single point].

With `COc1ccc(N(C)C(=O)c2cc3c(s2)-c2c(C)cccc2OC3)c(OC)c1`, under setting [2], the AC50 is 29.1 µM [rising, single point].

On to `CCc1nc(SCC(=O)N2CCN(C(=O)c3ccco3)CC2)c2c3c(sc2n1)CCCC3`, for which the cell number change turned out to be 84%. Moreover, under setting [1], the AC50 was 10.3 µM [rising, partial curve]. Also, the AC50 under setting [2] is 7.31 µM [rising, partial curve].

Regarding `Clc1ccccc1-c1nc2nc3ccccc3nc2n1-c1ccc2c(c1)OCO2`, the cell number change is 60.6%. Also, the AC50 under setting [1] is 29.1 µM [rising, single point]. In addition, the concentration at half-maximal activity (AC50) under setting [2] was 1.46 µM [rising, partial curve].

On to `CC(c1ccccc1)n1cc(C(=O)NCc2cccnc2)nn1` (stereo unspecified), for which the AC50 is, setting by setting: under setting [1], 6.51 µM [rising, single point]; under setting [2], 6.51 µM [rising, single point].

For `CS(=O)(=O)N(CC(=O)NC1CCCC1)Cc1ccc(F)cc1`, the cell number change is -23.7%. Moreover, the concentration at half-maximal activity (AC50) under setting [2] is 0.092 µM [falling, full curve, poor fit].

`Cc1ccc(C(=O)O)cc1NC(=S)NC(=O)Cc1ccccc1`: the cell number change was -5.44%. Moreover, the AC50 under setting [2] is 3.66 µM [falling, single point].

Consider `CCOC(=O)CSC1=C(C#N)C(=O)NC(c2ccc(OC)cc2)S1` (stereo unspecified), for which the cell number change was -21.5%. The AC50 under setting [2] was 18.4 µM [falling, partial curve].

Turning to `Nc1nc(N2CCN(C(=O)c3ccco3)CC2)nc2ccc(Br)cc12`, the cell number change amounted to 21.3%. The concentration at half-maximal activity (AC50) under setting [1] is 2.31 µM [rising, single point]. In addition, the AC50 under setting [2] is 6.51 µM [rising, single point].

With `C=CCn1c(=NC(=O)c2cccs2)sc2cccc(OC)c21`, the cell number change came to 0.201%. Moreover, the AC50 under setting [2] is 0.184 µM [rising, full curve, poor fit].

As to `COc1ccc(-c2ccc(-c3noc(C(C)C)n3)c(OC)n2)cc1`, the cell number change is -17.8%.

In the case of `COc1ccc(N(Cc2ccccc2)N=O)cc1`, the cell number change came out at 23.2%. Under setting [2], the AC50 was 0.58 µM [falling, single point].

In the case of `Cc1c(NC(=S)NC(=O)Cc2ccccc2)cccc1C(=O)O`, the cell number change was 40%.

`COc1ccc(CC(=O)O/N=C(\N)Cc2ccc([N+](=O)[O-])cc2)cc1`: the cell number change came to 2.3%.

Take `COc1ccc(CNC(=O)CCc2ccc(S(=O)(=O)N3CCCCCC3)cc2)cc1OC`: the half-maximal activity concentration (AC50) under setting [2] was 32.6 µM [falling, single point].

Turning to `Cc1cc(C)n(-c2cc(N3CCN(C(=O)c4cccc(Br)c4)CC3)ccc2[N+](=O)[O-])n1`, the cell number change is -31.1%. In addition, the AC50 under setting [1] was 29.1 µM [falling, single point]. In addition, the concentration at half-maximal activity (AC50) under setting [2] was 7.31 µM [falling, partial curve, poor fit].

Regarding `O=C(O)CCc1ccc(-c2ccc(Cl)cc2)o1`, the cell number change was -30.5%. Moreover, the AC50 under setting [2] was 0.731 µM [falling, full curve].

For the compound `O=C1NC2(CCCCCC2)C(=O)N1Cc1ccc(F)cc1Cl`, the cell number change is -2.94%. Moreover, the AC50 under setting [2] is 6.51 µM [rising, single point].

With `Cc1cc(NC(=O)CSCC(=O)OCc2nnc(-c3ccccc3)o2)no1`, the cell number change was determined as 13%. The half-maximal activity concentration (AC50) under setting [2] is 0.146 µM [rising, full curve, poor fit].

In the case of `Cc1cccn2c(=O)cc(CSc3nnc(NC(=O)COc4ccccc4)s3)nc12`, the cell number change came to 21.1%. Also, the AC50 under setting [2] is 20.6 µM [rising, single point].

Turning to `CC(=O)Nc1nnc(SCC(=O)NCC2CCCO2)s1` (stereo unspecified), the concentration at half-maximal activity (AC50) under setting [1] is 0.0164 µM [falling, full curve, poor fit].

On to `CCOc1ccc(-n2c(C)nc3cc(C(=O)NCc4ccco4)ccc32)cc1`, for which the cell number change turned out to be 22%. For the same compound, under setting [2], the half-maximal activity concentration (AC50) is 29.1 µM [rising, single point].

In the case of `CCN(CC)S(=O)(=O)c1cccc(-c2nnc(SCCCC(=O)c3ccc(F)cc3)o2)c1`, the cell number change is -27.6%.

`COc1ccccc1N(CC(=O)NC1CCCC1)C(=O)CCC(=O)Nc1ccccn1`: the cell number change came out at 5.22%. For the same compound, the half-maximal activity concentration (AC50) under setting [2] is 1.03 µM [rising, single point].

For `COc1cccc(C(C#N)N2CCCCC2)c1O` (stereo unspecified), the cell number change is -4.88%. For the same compound, the concentration at half-maximal activity (AC50) under setting [2] was 14.6 µM [rising, partial curve, poor fit].

In the case of `COc1ccc(OC)c(NC(=O)c2[nH]c(C)c(C(C)=O)c2C)c1`, the cell number change is 55.2%. The half-maximal activity concentration (AC50) under setting [1] was 3.26 µM [rising, partial curve]. Further, the AC50 under setting [2] was 0.651 µM [rising, full curve].

As for `C=CCNC(=S)NN(c1ccccc1)c1ccccc1`, the cell number change was -19.6%.

`CCCNC(=O)/C=C/c1ccc(C(C)C)cc1`: the cell number change stood at 15.5%. Besides, the AC50 under setting [2] is 0.164 µM [rising, partial curve, poor fit].

On to `Cc1ccc2nc(C)c(C(=O)N/N=C/c3ccccc3[N+](=O)[O-])cc2c1`, for which the concentration at half-maximal activity (AC50) runs as follows: under setting [1], 6.51 µM [falling, single point]; under setting [2], 0.0058 µM [rising, full curve, poor fit].

With `Cc1c(CCC(=O)O)c(=O)oc2cc(OCc3ccccc3Br)ccc12`, the cell number change amounted to 25.5%. Moreover, under setting [2], the AC50 was 29.1 µM [rising, single point].

As to `COC(=O)c1ccc(NC(=O)CCN2C(=O)NC(C)(C)C2=O)cc1`, the cell number change was 7.22%. The concentration at half-maximal activity (AC50) under setting [2] was 3.26 µM [falling, single point].

In the case of `O=C(COC(=O)Cc1ccc(Br)cc1)Nc1ccc(N2CCOCC2)cc1`, the cell number change is -24.2%. Besides, the AC50 under setting [2] is 29.1 µM [falling, single point].

For the compound `N#CC1(NC(=O)COC(=O)c2ccccc2SCC(=O)N2CCCC2)CCCCC1`, the cell number change is 2.16%.

As to `COc1ccc(OC)c(-n2c(N)c(C(=O)NCC3CCCO3)c3nc4ccccc4nc32)c1` (stereo unspecified), the cell number change came to 27%. Moreover, the AC50 under setting [2] was 2.59 µM [rising, partial curve].

As for `CCOc1cc(/C=C2/SC(=S)N(CC3CCCO3)C2=O)ccc1O` (stereo unspecified), the cell number change was -13.4%. The AC50 under setting [1] was 2.91 µM [falling, single point]. Moreover, the concentration at half-maximal activity (AC50) under setting [2] is 4.11 µM [falling, full curve, poor fit].

For `Cn1cccc1C(=O)C(=O)Nc1ccc(F)c(F)c1`, the cell number change was -69.4%.

Consider `CCCCn1c(N)c(N(CC(C)C)C(=O)c2ccncc2)c(=O)[nH]c1=O`, for which the cell number change is -9.48%. Besides, under setting [2], the AC50 is 7.31 µM [falling, partial curve, poor fit].

For the compound `Cc1ccc(C2(C)NC(=O)N(CC(=O)NC(=O)NC3CCCC3)C2=O)cc1` (stereo unspecified), the cell number change is -10.8%. Moreover, under setting [2], the AC50 was 29.1 µM [falling, single point].

In the case of `O=C(NCc1ccncc1)C1CCN(S(=O)(=O)c2ccc(Cl)c(C(F)(F)F)c2)CC1`, the concentration at half-maximal activity (AC50) under setting [1] was 2.59 µM [rising, single point].

Consider `COc1ccccc1C(C)N(C)Cc1nc(COc2ccccc2)no1` (stereo unspecified), for which the cell number change worked out at 8.96%.

For `O=C(CCS(=O)(=O)c1ccccc1)Nc1nc(-c2ccc(F)cc2)cs1`, the cell number change was -3.1%. Further, the AC50 under setting [2] was 0.082 µM [rising, full curve, poor fit].

Turning to `Cc1cc(C(=O)Nc2cccc(S(=O)(=O)N3CCCC3)c2)c2ccccc2n1`, the cell number change worked out at 8.73%. The AC50 under setting [2] is 0.58 µM [falling, single point].

For the compound `CCc1ccc(OCC(=O)NNC(=S)NC(=O)C2CCCCC2)c(Br)c1`, the cell number change was -2.05%.

Consider `NC(=O)CC(NC(=O)c1cccc(Br)c1)c1ccc(NC2CCCCCCC2)c([N+](=O)[O-])c1` (stereo unspecified), for which the cell number change is -41.6%. For the same compound, the concentration at half-maximal activity (AC50) under setting [1] is 0.58 µM [falling, full curve]. Also, the half-maximal activity concentration (AC50) under setting [2] was 0.651 µM [falling, full curve].

For the compound `O=S(=O)(CCN1CCN(c2ccccc2O)CC1)c1cc(Cl)ccc1Cl`, the half-maximal activity concentration (AC50) under setting [2] is 6.51 µM [falling, single point].

Regarding `COC(=O)[C@H]1Cc2cnoc2C[C@]1(C)C(=O)O`, the cell number change was -17.6%. In addition, under setting [2], the AC50 is 3.66 µM [falling, full curve].

Take `C=CCS(=O)(=O)N1CCC(CCOc2ccccc2)(C(=O)OCC)CC1`: the cell number change was -12.7%. Further, the AC50 under setting [2] is 29.1 µM [falling, single point].

`CCOC(=O)c1c(NC(=O)CCNCc2ccco2)sc2c1CCC2`: the cell number change is -13%. Further, the half-maximal activity concentration (AC50) under setting [2] was 3.26 µM [rising, single point].

For the compound `CC(C)(C)NC(=S)Nc1ccc(Br)cc1`, the cell number change is -17.1%. Also, the AC50 under setting [2] was 0.731 µM [falling, single point].

Regarding `CCC1=NN2C(=N)/C(=C\c3cccn3-c3ccc(C)cc3C)C(=O)N=C2S1`, the cell number change came to 64.7%. Besides, the concentration at half-maximal activity (AC50) under setting [1] was 29.1 µM [rising, single point].

Regarding `CC1CCC(C(C)C)C(OC(=O)CSc2n[nH]c(=O)[nH]c2=O)C1` (stereo unspecified), the cell number change amounted to 4.14%. Besides, under setting [2], the AC50 was 3.66 µM [falling, single point].

Regarding `CCCCCNc1nc2ccccc2nc1NS(=O)(=O)c1cccs1`, the cell number change turned out to be 57.5%. The AC50 under setting [1] was 1.03 µM [rising, full curve]. For the same compound, the AC50 under setting [2] is 9.2 µM [rising, partial curve].
